Measured values reported in patent publication US20160194407A1.
No constants are given. Whether binding was seen depends on the method and setting. For some assays here: Binding calls can cover weak binding; strength is not graded here.

Experiments:
[1] = target: cynomolgus CD73 extracellular domain (ECD) (cynomolgus); experiment: SPR ProteOn
CD73 chimera DS2dmod_3b = experiment: SPR ProteOn, CD73 variant on HTG chip

B1: MEDI9447 (antibody, V domains shown)
VH: EVQLLESGGGLVQPGGSLRLSCAASGFTFSSYAYSWVRQAPGKGLEWVSAISGSGGRTYYADSVKGRFTISRDNSKNTLYLQMNSLRAEDTAVYYCARLGYGRVDEWGRGTLVTVSS
VL: QSVLTQPPSASGTPGQRVTISCSGSLSNIGRNPVNWYQQLPGTAPKLLIYLDNLRLSGVPDRFSGSKSGTSASLAISGLQSEDEADYYCATWDDSHPGWTFGGGTKLTVL
In the case of B1, the binding [1] is reported as “binds” and the binding (CD73 chimera DS2dmod_3b) is reported as “no binding”.
